# Reference: publication PMC7806638
# By UniProt entry, the sequences of proteins in these tests, tags left out. Where a name states a change or a piece, a line headed by the entry shows the natural chain unless it says otherwise.
# UniProt P06748: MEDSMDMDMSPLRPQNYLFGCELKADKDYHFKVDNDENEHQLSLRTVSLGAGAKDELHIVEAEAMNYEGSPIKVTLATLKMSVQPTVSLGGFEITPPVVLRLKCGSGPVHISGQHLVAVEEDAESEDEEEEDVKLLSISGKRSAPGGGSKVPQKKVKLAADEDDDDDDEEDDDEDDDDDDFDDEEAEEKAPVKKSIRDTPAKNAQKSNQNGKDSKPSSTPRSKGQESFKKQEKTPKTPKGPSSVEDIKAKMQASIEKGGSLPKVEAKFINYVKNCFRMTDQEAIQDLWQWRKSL
# Results are given in words; binding and its absence hold for the method and conditions named. A result given as binding can be weak or reduced; the word gives no strength. For part of these data: In cells and extracts the contact can be indirect.
# Assays:
# [1] = target: mRFP1-labeled nucleophosmin with AML-associated mutation type A (human) (UniProt P06748); test: co-IP; RFP-Trap nanobeads on lysates of co-transfected 293T cells, 1 h at 4 °C, washed with 10 mM Tris pH 7.5, 150 mM NaCl, 0.5 mM EDTA, SDS-PAGE and blot; some samples from cells treated with 10 µM NSC348884 for 24 h
# [2] = target: eGFP-labeled nucleophosmin with AML-associated mutation type A (human) (UniProt P06748); test: co-IP; GFP-Trap nanobeads on lysates of transfected 293T cells, 1 h at 4 °C, washed with 10 mM Tris pH 7.5, 150 mM NaCl, 0.5 mM EDTA, SDS-PAGE and blot; some samples from cells treated with 10 µM NSC348884 for 24 h
# [3] = target: eGFP-labeled nucleophosmin with AML-associated mutation type A (human) (UniProt P06748); test: relocalisation on co-expression (confocal live-cell imaging); 293T cells (with NSC348884 also HeLa) co-transfected with G_NPMmut and mRFP1-labeled NPM variants; red signal in the cytoplasm and green signal in nucleoli scored
# [4] = target: eGFP-labeled nucleophosmin with AML-associated mutation type A (human) (UniProt P06748); test: FRET or BRET; FLIM-FRET in living co-transfected cells, eGFP donor and mRFP1 acceptor, eGFP lifetime before and after mRFP1 photobleaching, 37 °C; some cells treated with 10 µM NSC348884 for 2 h
binding [1],binding [2],binding [3],binding [4],Substance
binds,,,,eGFP-labeled nucleophosmin with AML-associated mutation type A (from UniProt P06748)
binds,binds,,,endogenous nucleophosmin (from UniProt P06748 1-294)
,,binds,,mRFP1-labeled wild-type nucleophosmin (from UniProt P06748 1-294)
,binds,,binds,mRFP1-labeled nucleophosmin with AML-associated mutation type A (from UniProt P06748)
